Assay results: PMC8125419
Results are given in words; binding and its absence hold for the method and conditions named. Binding seen in cells or lysates may run through a third protein. Some entries that bind do so weakly or less than the wild type. For some of these results: Where a sequence is shown, tags or fusion partners need not be part of it. One block for each binder: values may come before it.

By UniProt entry, the sequences of proteins in these tests, tags left out.
UniProt Q9Y6K9: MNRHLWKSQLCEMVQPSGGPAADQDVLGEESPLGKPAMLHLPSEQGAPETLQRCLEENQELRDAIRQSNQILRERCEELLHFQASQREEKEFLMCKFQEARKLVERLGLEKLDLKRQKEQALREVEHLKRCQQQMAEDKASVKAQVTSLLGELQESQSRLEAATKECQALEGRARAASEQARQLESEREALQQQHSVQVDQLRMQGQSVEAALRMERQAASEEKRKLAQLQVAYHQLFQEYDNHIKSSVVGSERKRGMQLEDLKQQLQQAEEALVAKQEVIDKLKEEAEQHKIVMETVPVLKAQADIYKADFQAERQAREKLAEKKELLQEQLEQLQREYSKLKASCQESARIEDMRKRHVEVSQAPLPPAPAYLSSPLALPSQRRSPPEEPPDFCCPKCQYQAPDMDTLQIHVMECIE

What was measured:
[1] = molecular target: T1, human Caspase 12 (hCasp12), GFP-tagged, expressed from pC12 (human) (UniProt Q6UXS9); assay: co-IP; lysates of pC12-transfected NPC cells (24 h); immunoprecipitated with anti-hCasp12 antibody, Protein A/G magnetic beads; western blot for IKKα and IKKβ
T1 sequence: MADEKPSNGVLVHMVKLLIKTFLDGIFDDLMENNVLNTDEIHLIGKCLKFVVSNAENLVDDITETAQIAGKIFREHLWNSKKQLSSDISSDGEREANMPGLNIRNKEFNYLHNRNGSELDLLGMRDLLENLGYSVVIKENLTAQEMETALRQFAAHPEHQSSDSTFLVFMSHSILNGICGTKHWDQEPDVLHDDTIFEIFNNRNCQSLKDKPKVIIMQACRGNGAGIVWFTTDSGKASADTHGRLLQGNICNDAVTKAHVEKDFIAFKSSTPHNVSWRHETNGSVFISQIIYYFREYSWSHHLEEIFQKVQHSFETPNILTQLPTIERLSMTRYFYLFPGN

[2] = molecular target: NF-κB essential modulator (NEMO) (human (endogenous in NPC cells)) (UniProt Q9Y6K9); assay: co-IP; lysates of pC12-transfected and control NPC cells (24 h); immunoprecipitated with anti-NEMO antibody, Protein A/G magnetic beads; western blot with the indicated antibodies
[3] = molecular target: T2, IKKα (human (endogenous in NPC cells)) (UniProt O15111); assay: co-IP; lysates of pC12-transfected and control NPC cells (24 h); immunoprecipitated with anti-IKKα antibody (the legend says anti-IKKβ), Protein A/G magnetic beads; western blot for hCasp12 and NEMO
T2 sequence: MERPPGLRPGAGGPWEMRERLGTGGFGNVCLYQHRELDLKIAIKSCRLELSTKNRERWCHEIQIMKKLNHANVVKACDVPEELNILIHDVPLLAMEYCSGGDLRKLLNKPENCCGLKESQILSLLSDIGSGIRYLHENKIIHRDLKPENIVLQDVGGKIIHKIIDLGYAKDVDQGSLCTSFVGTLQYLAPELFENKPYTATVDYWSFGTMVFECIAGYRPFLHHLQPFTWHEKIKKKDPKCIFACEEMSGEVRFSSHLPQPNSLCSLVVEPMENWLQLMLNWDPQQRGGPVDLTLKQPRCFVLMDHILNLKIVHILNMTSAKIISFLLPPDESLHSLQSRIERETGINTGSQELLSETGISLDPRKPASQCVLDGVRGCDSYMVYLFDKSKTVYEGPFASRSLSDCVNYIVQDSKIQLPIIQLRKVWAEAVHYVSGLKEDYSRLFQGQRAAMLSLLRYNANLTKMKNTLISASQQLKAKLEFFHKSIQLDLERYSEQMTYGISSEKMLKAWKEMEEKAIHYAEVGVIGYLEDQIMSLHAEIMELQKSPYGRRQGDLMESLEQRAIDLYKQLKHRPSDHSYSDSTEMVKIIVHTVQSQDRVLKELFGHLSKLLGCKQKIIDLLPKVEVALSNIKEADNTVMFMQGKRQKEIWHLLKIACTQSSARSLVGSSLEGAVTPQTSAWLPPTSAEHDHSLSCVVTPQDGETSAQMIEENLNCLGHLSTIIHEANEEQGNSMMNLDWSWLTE

[4] = molecular target: NF-κB essential modulator (NEMO) (human (endogenous in NPC cells)), Q9Y6K9; assay: co-IP; lysates of pC12-transfected and control NPC cells (24 h); immunoprecipitated with anti-NEMO antibody, Protein A/G magnetic beads; western blot with the indicated antibodies; settings: remark: other sources report otherwise

binding [1]: binds
B1: IKKβ (protein, UniProt O14920 1-756)
chain: MSWSPSLTTQTCGAWEMKERLGTGGFGNVIRWHNQETGEQIAIKQCRQELSPRNRERWCLEIQIMRRLTHPNVVAARDVPEGMQNLAPNDLPLLAMEYCQGGDLRKYLNQFENCCGLREGAILTLLSDIASALRYLHENRIIHRDLKPENIVLQQGEQRLIHKIIDLGYAKELDQGSLCTSFVGTLQYLAPELLEQQKYTVTVDYWSFGTLAFECITGFRPFLPNWQPVQWHSKVRQKSEVDIVVSEDLNGTVKFSSSLPYPNNLNSVLAERLEKWLQLMLMWHPRQRGTDPTYGPNGCFKALDDILNLKLVHILNMVTGTIHTYPVTEDESLQSLKARIQQDTGIPEEDQELLQEAGLALIPDKPATQCISDGKLNEGHTLDMDLVFLFDNSKITYETQISPRPQPESVSCILQEPKRNLAFFQLRKVWGQVWHSIQTLKEDCNRLQQGQRAAMMNLLRNNSCLSKMKNSMASMSQQLKAKLDFFKTSIQIDLEKYSEQTEFGITSDKLLLAWREMEQAVELCGRENEVKLLVERMMALQTDIVDLQRSPMGRKQGGTLDDLEEQARELYRRLREKPRDQRTEGDSQEMVRLLLQAIQSFEKKVRVIYTQLSKTVVCKQKALELLPKVEEVVSLMNEDEKTVVRLQEKRQKELWNLLKIACSKVRGPVSGSPDSMNASRLSQPGQLMSQPSTASNSLPEPAKKSEELVAEAHNLCTLLENAIQDTVREQDQSFTALDWSWLQTEEEEHSCLEQAS

binding [2]: no binding
binding [3]: binds
B2: human Caspase 12 (hCasp12), GFP-tagged, expressed from pC12 (protein, UniProt Q6UXS9 1-341)
chain: MADEKPSNGVLVHMVKLLIKTFLDGIFDDLMENNVLNTDEIHLIGKCLKFVVSNAENLVDDITETAQIAGKIFREHLWNSKKQLSSDISSDGEREANMPGLNIRNKEFNYLHNRNGSELDLLGMRDLLENLGYSVVIKENLTAQEMETALRQFAAHPEHQSSDSTFLVFMSHSILNGICGTKHWDQEPDVLHDDTIFEIFNNRNCQSLKDKPKVIIMQACRGNGAGIVWFTTDSGKASADTHGRLLQGNICNDAVTKAHVEKDFIAFKSSTPHNVSWRHETNGSVFISQIIYYFREYSWSHHLEEIFQKVQHSFETPNILTQLPTIERLSMTRYFYLFPGN

binding [4]: binds
B3: IKKα, O15111 1-745 (protein)
chain: MERPPGLRPGAGGPWEMRERLGTGGFGNVCLYQHRELDLKIAIKSCRLELSTKNRERWCHEIQIMKKLNHANVVKACDVPEELNILIHDVPLLAMEYCSGGDLRKLLNKPENCCGLKESQILSLLSDIGSGIRYLHENKIIHRDLKPENIVLQDVGGKIIHKIIDLGYAKDVDQGSLCTSFVGTLQYLAPELFENKPYTATVDYWSFGTMVFECIAGYRPFLHHLQPFTWHEKIKKKDPKCIFACEEMSGEVRFSSHLPQPNSLCSLVVEPMENWLQLMLNWDPQQRGGPVDLTLKQPRCFVLMDHILNLKIVHILNMTSAKIISFLLPPDESLHSLQSRIERETGINTGSQELLSETGISLDPRKPASQCVLDGVRGCDSYMVYLFDKSKTVYEGPFASRSLSDCVNYIVQDSKIQLPIIQLRKVWAEAVHYVSGLKEDYSRLFQGQRAAMLSLLRYNANLTKMKNTLISASQQLKAKLEFFHKSIQLDLERYSEQMTYGISSEKMLKAWKEMEEKAIHYAEVGVIGYLEDQIMSLHAEIMELQKSPYGRRQGDLMESLEQRAIDLYKQLKHRPSDHSYSDSTEMVKIIVHTVQSQDRVLKELFGHLSKLLGCKQKIIDLLPKVEVALSNIKEADNTVMFMQGKRQKEIWHLLKIACTQSSARSLVGSSLEGAVTPQTSAWLPPTSAEHDHSLSCVVTPQDGETSAQMIEENLNCLGHLSTIIHEANEEQGNSMMNLDWSWLTE
